Assay results: the supplement of paper PMC10849652
This is one part of the list.

By UniProt entry, the sequences of proteins in these tests, tags left out. Where a name states a change or a piece, a line headed by the entry shows the natural chain unless it says otherwise.
UniProt Q9NQQ7: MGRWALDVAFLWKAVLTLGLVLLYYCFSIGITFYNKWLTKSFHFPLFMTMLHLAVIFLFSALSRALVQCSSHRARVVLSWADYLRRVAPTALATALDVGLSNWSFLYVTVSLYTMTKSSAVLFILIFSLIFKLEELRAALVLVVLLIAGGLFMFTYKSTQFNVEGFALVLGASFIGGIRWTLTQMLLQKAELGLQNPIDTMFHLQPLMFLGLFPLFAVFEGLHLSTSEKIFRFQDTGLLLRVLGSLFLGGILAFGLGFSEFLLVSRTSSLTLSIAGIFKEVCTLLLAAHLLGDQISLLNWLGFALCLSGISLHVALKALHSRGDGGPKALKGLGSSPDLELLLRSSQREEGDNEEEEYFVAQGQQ
UniProt Q6NT16: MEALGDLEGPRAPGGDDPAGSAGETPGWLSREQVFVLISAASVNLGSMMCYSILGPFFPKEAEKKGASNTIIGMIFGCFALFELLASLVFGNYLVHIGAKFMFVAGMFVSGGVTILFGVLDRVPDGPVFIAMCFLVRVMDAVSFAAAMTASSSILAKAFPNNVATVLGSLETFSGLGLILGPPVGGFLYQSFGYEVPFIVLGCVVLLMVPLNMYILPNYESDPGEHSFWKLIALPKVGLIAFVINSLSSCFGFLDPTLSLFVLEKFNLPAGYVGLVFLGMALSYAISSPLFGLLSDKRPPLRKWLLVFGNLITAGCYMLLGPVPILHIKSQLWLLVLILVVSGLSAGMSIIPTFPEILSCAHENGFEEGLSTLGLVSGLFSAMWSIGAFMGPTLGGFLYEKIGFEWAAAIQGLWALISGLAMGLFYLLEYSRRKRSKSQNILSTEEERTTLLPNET
UniProt Q9BWU0: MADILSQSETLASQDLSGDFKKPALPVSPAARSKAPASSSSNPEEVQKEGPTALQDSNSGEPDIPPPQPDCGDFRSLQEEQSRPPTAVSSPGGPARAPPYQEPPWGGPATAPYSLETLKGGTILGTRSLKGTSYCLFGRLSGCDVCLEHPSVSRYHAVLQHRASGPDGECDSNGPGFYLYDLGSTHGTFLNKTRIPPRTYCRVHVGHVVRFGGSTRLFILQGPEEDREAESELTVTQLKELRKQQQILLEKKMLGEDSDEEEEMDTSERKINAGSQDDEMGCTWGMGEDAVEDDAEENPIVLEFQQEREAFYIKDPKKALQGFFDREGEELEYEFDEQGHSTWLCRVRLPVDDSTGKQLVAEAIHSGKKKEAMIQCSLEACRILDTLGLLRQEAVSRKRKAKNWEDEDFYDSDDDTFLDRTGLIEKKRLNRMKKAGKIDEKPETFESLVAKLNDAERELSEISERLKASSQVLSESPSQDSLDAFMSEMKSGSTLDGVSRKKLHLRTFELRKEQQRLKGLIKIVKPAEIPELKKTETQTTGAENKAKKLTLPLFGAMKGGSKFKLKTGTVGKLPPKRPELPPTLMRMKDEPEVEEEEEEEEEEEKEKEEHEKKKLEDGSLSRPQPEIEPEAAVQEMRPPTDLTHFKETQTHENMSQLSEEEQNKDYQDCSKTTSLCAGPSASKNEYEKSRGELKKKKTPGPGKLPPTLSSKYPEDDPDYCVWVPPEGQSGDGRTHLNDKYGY
UniProt Q9H1U9: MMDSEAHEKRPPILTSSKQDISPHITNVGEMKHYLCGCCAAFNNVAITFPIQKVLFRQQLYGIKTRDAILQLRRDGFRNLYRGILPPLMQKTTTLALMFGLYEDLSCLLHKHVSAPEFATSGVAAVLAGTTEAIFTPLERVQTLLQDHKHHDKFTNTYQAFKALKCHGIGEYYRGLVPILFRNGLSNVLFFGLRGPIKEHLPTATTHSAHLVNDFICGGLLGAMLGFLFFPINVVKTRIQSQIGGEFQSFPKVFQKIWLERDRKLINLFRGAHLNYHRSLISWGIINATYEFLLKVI
UniProt Q96QD8: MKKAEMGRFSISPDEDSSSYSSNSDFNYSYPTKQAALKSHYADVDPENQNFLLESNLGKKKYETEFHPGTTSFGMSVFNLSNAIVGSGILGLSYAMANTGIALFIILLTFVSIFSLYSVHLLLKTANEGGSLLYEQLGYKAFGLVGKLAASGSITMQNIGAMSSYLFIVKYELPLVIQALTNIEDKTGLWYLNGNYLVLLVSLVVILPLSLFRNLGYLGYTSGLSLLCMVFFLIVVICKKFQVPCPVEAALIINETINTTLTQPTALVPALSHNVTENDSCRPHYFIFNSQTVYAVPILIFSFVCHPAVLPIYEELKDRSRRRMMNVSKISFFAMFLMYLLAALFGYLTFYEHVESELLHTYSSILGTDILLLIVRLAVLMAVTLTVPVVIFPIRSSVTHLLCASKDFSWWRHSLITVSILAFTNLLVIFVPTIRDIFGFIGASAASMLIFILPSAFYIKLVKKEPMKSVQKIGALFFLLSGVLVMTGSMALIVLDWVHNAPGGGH
UniProt Q8WUM9: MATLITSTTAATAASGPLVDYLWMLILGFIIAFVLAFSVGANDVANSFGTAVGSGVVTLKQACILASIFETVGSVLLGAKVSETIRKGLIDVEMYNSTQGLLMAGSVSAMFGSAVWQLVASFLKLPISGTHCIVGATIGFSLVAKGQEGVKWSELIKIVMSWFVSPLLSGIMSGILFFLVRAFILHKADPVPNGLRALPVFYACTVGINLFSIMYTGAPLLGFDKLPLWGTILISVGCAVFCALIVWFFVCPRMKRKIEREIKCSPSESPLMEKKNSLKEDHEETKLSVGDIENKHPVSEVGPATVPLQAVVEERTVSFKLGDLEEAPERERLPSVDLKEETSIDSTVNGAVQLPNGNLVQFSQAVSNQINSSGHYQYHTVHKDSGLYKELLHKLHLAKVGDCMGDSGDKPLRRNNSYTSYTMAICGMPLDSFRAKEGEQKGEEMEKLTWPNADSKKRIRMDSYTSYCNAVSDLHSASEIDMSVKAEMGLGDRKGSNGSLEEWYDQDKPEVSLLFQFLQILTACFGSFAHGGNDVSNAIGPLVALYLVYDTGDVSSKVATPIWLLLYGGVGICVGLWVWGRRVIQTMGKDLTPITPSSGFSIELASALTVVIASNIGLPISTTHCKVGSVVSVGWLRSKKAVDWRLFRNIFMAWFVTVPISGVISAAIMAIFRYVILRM
UniProt Q6NXT4: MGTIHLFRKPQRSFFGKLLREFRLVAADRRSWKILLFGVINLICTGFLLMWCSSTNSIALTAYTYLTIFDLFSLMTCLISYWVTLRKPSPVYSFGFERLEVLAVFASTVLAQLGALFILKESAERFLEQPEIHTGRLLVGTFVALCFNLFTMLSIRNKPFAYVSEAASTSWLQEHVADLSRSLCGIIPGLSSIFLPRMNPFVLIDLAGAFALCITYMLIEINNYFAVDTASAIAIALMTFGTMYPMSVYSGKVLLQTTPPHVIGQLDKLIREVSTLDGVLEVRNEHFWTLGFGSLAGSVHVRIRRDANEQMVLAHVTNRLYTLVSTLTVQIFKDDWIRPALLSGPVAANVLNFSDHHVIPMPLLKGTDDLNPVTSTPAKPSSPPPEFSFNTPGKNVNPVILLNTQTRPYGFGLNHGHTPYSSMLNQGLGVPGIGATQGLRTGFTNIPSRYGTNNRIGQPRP
UniProt P11166: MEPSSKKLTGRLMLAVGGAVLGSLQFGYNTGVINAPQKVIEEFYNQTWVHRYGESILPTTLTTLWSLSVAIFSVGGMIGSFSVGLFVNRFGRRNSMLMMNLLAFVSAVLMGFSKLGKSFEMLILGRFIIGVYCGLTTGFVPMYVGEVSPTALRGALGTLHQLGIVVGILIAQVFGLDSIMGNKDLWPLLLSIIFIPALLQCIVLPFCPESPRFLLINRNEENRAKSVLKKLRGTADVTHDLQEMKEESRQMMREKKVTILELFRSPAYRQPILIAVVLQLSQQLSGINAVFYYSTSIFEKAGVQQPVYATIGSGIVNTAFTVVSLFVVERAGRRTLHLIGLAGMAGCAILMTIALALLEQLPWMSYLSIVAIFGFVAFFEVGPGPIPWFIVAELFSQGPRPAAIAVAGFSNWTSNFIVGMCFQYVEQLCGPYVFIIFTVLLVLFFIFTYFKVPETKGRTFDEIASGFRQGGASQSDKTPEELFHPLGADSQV
UniProt O00400: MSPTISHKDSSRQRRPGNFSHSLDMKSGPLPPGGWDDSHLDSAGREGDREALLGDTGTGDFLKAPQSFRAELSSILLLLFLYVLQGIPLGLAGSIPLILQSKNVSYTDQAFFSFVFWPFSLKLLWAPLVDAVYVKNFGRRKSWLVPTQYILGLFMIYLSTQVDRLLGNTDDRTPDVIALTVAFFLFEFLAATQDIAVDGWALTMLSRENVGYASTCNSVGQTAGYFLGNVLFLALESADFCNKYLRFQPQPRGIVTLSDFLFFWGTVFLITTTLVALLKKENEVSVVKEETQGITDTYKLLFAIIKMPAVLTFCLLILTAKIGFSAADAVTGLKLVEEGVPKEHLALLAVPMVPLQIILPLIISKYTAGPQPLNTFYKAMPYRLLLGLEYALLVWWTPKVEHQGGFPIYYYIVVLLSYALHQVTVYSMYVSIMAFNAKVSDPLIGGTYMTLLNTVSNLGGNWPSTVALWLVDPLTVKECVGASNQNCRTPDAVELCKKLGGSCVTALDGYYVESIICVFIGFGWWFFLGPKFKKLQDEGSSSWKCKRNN
UniProt Q9Y2D2: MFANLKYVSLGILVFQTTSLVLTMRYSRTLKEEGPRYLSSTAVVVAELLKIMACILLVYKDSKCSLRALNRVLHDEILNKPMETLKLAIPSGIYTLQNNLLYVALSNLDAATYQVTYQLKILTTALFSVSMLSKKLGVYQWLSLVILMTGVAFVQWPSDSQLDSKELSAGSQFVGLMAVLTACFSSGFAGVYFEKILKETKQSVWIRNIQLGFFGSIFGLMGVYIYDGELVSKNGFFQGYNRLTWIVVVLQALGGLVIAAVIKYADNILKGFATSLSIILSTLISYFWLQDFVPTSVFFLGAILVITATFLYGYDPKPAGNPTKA
UniProt Q8IWA5: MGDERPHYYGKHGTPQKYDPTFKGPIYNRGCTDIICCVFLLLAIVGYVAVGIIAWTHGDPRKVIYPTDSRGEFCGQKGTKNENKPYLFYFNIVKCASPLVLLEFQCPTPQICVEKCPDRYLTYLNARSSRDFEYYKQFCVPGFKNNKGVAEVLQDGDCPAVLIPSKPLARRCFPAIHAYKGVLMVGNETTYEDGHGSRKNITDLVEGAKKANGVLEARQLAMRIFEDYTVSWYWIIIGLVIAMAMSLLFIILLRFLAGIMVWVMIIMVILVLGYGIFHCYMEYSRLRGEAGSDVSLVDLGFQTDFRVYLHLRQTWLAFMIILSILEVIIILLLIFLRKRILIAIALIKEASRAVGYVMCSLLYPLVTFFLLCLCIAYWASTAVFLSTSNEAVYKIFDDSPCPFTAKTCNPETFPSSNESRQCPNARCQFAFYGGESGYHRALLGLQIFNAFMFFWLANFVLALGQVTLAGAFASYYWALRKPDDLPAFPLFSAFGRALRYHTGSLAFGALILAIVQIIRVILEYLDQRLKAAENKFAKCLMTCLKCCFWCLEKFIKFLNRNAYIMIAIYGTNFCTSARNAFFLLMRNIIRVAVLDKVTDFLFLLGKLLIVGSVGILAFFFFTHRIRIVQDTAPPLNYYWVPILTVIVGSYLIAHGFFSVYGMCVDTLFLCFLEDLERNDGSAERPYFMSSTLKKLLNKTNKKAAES
UniProt O43826: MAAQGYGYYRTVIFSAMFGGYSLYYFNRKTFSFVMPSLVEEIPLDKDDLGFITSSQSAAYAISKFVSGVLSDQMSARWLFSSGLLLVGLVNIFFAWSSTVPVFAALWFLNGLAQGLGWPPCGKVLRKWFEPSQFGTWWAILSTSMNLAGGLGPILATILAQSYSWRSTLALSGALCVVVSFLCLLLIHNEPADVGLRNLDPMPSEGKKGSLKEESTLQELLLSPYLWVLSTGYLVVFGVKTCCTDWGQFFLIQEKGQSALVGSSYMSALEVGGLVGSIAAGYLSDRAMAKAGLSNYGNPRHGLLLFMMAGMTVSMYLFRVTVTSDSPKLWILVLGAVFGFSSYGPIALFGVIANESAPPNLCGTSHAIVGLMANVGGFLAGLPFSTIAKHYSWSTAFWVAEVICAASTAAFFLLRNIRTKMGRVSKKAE
UniProt Q8NBW4: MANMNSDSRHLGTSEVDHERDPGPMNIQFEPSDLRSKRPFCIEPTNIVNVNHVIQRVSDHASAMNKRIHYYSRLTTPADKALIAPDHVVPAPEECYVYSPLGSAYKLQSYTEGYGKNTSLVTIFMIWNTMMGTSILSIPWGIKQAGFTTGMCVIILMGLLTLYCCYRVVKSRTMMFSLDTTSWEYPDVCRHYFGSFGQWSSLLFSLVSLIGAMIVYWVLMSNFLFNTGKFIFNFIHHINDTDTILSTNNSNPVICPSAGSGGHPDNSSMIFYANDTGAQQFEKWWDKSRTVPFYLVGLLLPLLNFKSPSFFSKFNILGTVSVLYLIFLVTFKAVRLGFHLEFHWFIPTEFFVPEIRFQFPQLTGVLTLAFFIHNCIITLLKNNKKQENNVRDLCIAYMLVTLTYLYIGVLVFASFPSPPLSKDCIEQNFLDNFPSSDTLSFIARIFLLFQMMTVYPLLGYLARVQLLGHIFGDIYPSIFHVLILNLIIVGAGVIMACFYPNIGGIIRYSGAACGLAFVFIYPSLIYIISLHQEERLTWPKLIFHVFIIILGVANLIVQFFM

These targets were tested with C1=CC(=CC=C1C2=NC3=C(N2)C=C(C=C3)C(=O)N)OC4=CC=C(C=C4)Cl (assay: log2 fold change, soluble protein after heating vs DMSO (PISA); higher = thermal stabilisation; K562 cells, 10 uM, 30 min; active = over 0.2 and 3.5 SD of the protein, either way, in both replicates (recomputed)).
In short: (§1)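 K562 cells (2×10^6 cells/mL) were treated with 10 μM compound for 30 min, and aliquots were heated for 3 min over 48°C-58°C. Pooled aliquots were extracted in PBS with 0.5% NP-40 at 4°C, and the supernatant after 21,000xg for 90 min was measured by TMTpro 16plex LC-MS/MS with channel sums equalised. Reported thermal stability, relative to control samples and from duplicates, is a log2 fold change.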

log2 fold change, inactive:
SLC12A4 (UniProt Q9UP95) 0.018
SLC35C2 isoform 3 (UniProt Q9NQQ7) -0.167
SLC25A20 (UniProt O43772) -0.009
SLC18B1 (UniProt Q6NT16) 0.06
SLC31A1 (UniProt O15431) -0.026
SLC2A3 (UniProt P11169) -0.008
SLC4A1AP (UniProt Q9BWU0) -0.003
SLC40A1 (UniProt Q9NP59) 0.039
SLC38A1 (UniProt Q9H2H9) -0.012
SLC30A5 (UniProt Q8TAD4) -0.02
SLC25A16 (UniProt P16260) 0.076
SLC35A4 (UniProt L0R6Q1) 0.003
SLC25A4 (UniProt P12235) -0.009
SLC39A6 (UniProt Q13433) 0.081
SLC25A51 (UniProt Q9H1U9) 0.03
SLC38A2 (UniProt Q96QD8) 0.003
SLC38A7 (UniProt Q9NVC3) 0.058
SLC25A46 (UniProt Q96AG3) -0.01
SLC5A6 (UniProt Q9Y289) 0.04
SLC20A1 (UniProt Q8WUM9) 0.046
SLC43A1 (UniProt O75387) 0.042
SLC1A3 (UniProt P43003) 0.053
SLC30A6 isoform 2 (UniProt Q6NXT4) 0.033
SLC25A37 (UniProt Q9NYZ2) 0.025
SLC7A1 (UniProt P30825) 0.026
SLC2A1 (UniProt P11166) -0.054
SLC3A2 isoform 3 (UniProt P08195) 0
SLC33A1 (UniProt O00400) 0.006
SLC35A3 isoform 2 (UniProt Q9Y2D2) -0.031
SLC3A2 (UniProt F5GZS6) 0.019
SLC44A2 isoform 2 (UniProt Q8IWA5) -0.054
SLC4A2 (UniProt P04920) 0.047
SLC35F6 (UniProt Q8N357) -0.067
SLC37A4 isoform 2 (UniProt O43826) 0.025
SLC10A4 (UniProt Q96EP9) -0.062
SLC25A1 (UniProt P53007) -0.01
SLBP (UniProt Q14493) 0.019
SLC38A9 (UniProt Q8NBW4) 0.02

These targets were tested with C1=CC2=C(C=CC(=C2)/C=C\3/C(=O)NC(=NCC4=CC=CS4)S3)N=C1 in the same assay as above.
In short: as §1

log2 fold change, inactive:
SLC12A4 (UniProt Q9UP95) 0.006
SLC35C2 isoform 3 (UniProt Q9NQQ7) 0.113
SLC25A20 (UniProt O43772) 0
SLC18B1 (UniProt Q6NT16) 0.108
SLC31A1 (UniProt O15431) 0.003
SLC2A3 (UniProt P11169) -0.061
SLC4A1AP (UniProt Q9BWU0) 0.067
SLC40A1 (UniProt Q9NP59) -0.114
SLC38A1 (UniProt Q9H2H9) -0.023
SLC30A5 (UniProt Q8TAD4) 0.069
SLC25A16 (UniProt P16260) 0.073
SLC35A4 (UniProt L0R6Q1) 0.07
SLC25A4 (UniProt P12235) -0.004
SLC39A6 (UniProt Q13433) -0.012
SLC25A51 (UniProt Q9H1U9) 0.018
SLC38A2 (UniProt Q96QD8) -0.039
SLC38A7 (UniProt Q9NVC3) 0.024
SLC25A46 (UniProt Q96AG3) 0.023
SLC5A6 (UniProt Q9Y289) 0.007
SLC20A1 (UniProt Q8WUM9) 0.036
SLC43A1 (UniProt O75387) 0.053
SLC1A3 (UniProt P43003) -0.169
SLC30A6 isoform 2 (UniProt Q6NXT4) -0.027
SLC25A37 (UniProt Q9NYZ2) -0.049
SLC7A1 (UniProt P30825) -0.015
SLC2A1 (UniProt P11166) -0.013
SLC3A2 isoform 3 (UniProt P08195) -0.035
SLC33A1 (UniProt O00400) 0.011
SLC35A3 isoform 2 (UniProt Q9Y2D2) 0.181
SLC3A2 (UniProt F5GZS6) -0.238
SLC44A2 isoform 2 (UniProt Q8IWA5) 0.019
SLC4A2 (UniProt P04920) 0.076
SLC35F6 (UniProt Q8N357) -0.013
SLC37A4 isoform 2 (UniProt O43826) 0.007
SLC10A4 (UniProt Q96EP9) 0.091
SLC25A1 (UniProt P53007) -0.079
SLBP (UniProt Q14493) -0.111
SLC38A9 (UniProt Q8NBW4) 0.046
